Test results from PubChem BioAssay AID504842 (National Center for Advancing Translational Sciences (NCATS), 2011).
Out of some 330,000 compounds screened, about 100 (0.03%) were called active. The inconclusive results got no clear call from the source; some entries with a clear call stand among them for comparison. Calls follow the shape of the dose curve; as a rule, active = well fitted inhibition curve with a large enough effect; inconclusive = small, poorly fitted or top-dose-only effect; inactive = flat fitted curve, though single readings scatter. Potencies beside an inconclusive call are fits to weak or partial responses and may not hold up.

System: Chaperonin Mm-Cpn (Methanococcus maripaludis)
Experiment: Inhibitors of TCP-1 ring complex (TRiC) of Methanococcus maripaludis (MmCpn): qHTS; also: nearly all actives have a fitted effect of over 80% in size;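 as to Potency: enzyme at 25 nM with ATP substrate at 10 µM during the reaction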
Details: purified Mm-Cpn ATPase, ADP Transcreener TR-FRET
Summary of the method: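 Purified archaeal chaperonin (25 nM final) was preincubated with compound for 10 min at 37°C, then ATP (10 uM final) was added for 30 min at 37°C in Tris pH 7.4/KCl/MgCl2/DTT buffer. ADP was quantified by HTRF Transcreener TR-FRET.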
Potency is read from the fitted curve at half-maximal effect.

| SMILES | Potency |
| --- | --- |
| COc1ccccc1-n1ccnc1SCC(=O)NC(C)(C)C | inconclusive: 12.6 µM [inhibitor, single point] |
| O=C(CC1C(=O)NCCN1C(=O)Nc1ccc(F)cc1F)Nc1cc(Cl)ccc1Cl (configuration not stated) | inconclusive: 100 µM [inhibitor, single point] |
| COc1ccc(Oc2cnn(-c3ccccc3)c(=O)c2Br)cc1 | inconclusive: 282 µM [inhibitor, partial curve, poor fit] |
| Cc1ccccc1-n1nnnc1SCC(=O)Nc1ccc(S(=O)(=O)N2CCCC2)cc1 | inactive |
| Cc1[nH]nc(-c2ccc(OCc3cnn(-c4ccccc4)c3)c(C)c2O)c1Oc1ccccc1 | inconclusive: 50.1 µM [inhibitor, single point] |
| COc1ccc(-c2csc3ncnc(Oc4cccc5ccc(C)nc45)c23)cc1 | inconclusive: 89.1 µM [inhibitor, single point] |
| CN1/C(=C\C(=O)COC(=O)c2ccccc2O)C(C)(C)c2ccccc21 | inconclusive: 50.1 µM [inhibitor, single point] |
| O=C(NCCN1CCOCC1)C1CCN(S(=O)(=O)N2CCCCC2)CC1 | inactive |
| CCCC(C)C(=O)Nc1nc(C)c(-c2csc(Nc3ccccc3OC)n2)s1 (configuration not stated) | inconclusive: 100 µM [inhibitor, single point] |
| CCOC(=O)CSc1nnc(-c2c[nH]c3ccccc23)o1 | inconclusive: 22.4 µM [inhibitor, single point] |
| CN(C)c1nc(N)nc(CSc2nc3cc(Cl)ccc3o2)n1 | inconclusive: 50.1 µM [inhibitor, single point] |
| Cn1c(/C=C/c2ccc(Br)cc2)c([N+](=O)[O-])c(=O)n(C)c1=O | inactive |
| CCOC(=O)c1ccc(-c2c(-c3ccccc3OC)sc3cc4c(cc23)OCO4)cc1F | inconclusive: 3.16 µM [inhibitor, full curve, poor fit] |
| CCN(CC)C(=O)CSc1nc2cccnc2n1-c1ccccc1OC | inconclusive: 447 µM [inhibitor, partial curve, poor fit] |
| COc1ccc(C)cc1NC(=O)CSCc1cc(=O)n2c(C)csc2n1 | inconclusive: 15.8 µM [inhibitor, single point] |
| CCOC(=O)/C(C#N)=C\c1ccc(N2CCN(C)CC2)cc1 | inconclusive: 12.6 µM [inhibitor, single point] |
| COc1cc(/C=C(\C#N)c2nc3ccccc3s2)ccc1OCC(=O)Nc1ccccc1 | inconclusive: 100 µM [inhibitor, single point] |
| CCCn1c(SCC(=O)NCC)nc2sc3c(c2c1=O)CCC3 | inactive |
| CSc1nn(CCc2ccncc2)c(=S)s1 | inactive |
| COc1cc(C(=O)N/N=C/c2ccc3c(c2)c2ccccc2n3C)ccc1O | inactive |
| O=C(Nc1ccc(Cl)cc1)Nc1nnc(Cc2ccc([N+](=O)[O-])cc2)s1 | inconclusive: 22.4 µM [inhibitor, single point] |

| SMILES | Potency |
| --- | --- |
| CCOc1ccc(C(=O)NCC(=O)OC2CCOC2=O)cc1OCC (configuration not stated) | inconclusive: 89.1 µM [inhibitor, single point] |
| O=C(CCCC(=O)NCC1CCCO1)NCC1CCCO1 (configuration not stated) | inconclusive: 50.1 µM [inhibitor, single point] |
| OCCNC(=S)Nc1ccc2nsnc2c1 | inconclusive: 178 µM [inhibitor, partial curve, poor fit] |
| Cn1c(=O)c2c(nc(NCCc3ccccc3)n2Cc2ccccc2)n(C)c1=O | inconclusive: 63.1 µM [inhibitor, single point] |
| O=C1N=C(N2CCCCC2)S/C1=C\c1ccc(Cl)cc1 | inactive |
| O=C(O)CCC(=O)Nc1ccc2c(c1)oc1ccccc12 | inconclusive: 100 µM [inhibitor, single point] |
| NC(=O)N/N=C/c1sc(=O)n(-c2ccccc2)c1Cl | inconclusive: 63.1 µM [inhibitor, single point] |
| CCOC(=O)c1ccccc1NC(=O)c1cc2sccc2n1C | inconclusive: 89.1 µM [inhibitor, single point] |
| O=C(COc1ccc(C(=S)N2CCCC2)cc1)Nc1ccc(F)cc1 | inconclusive: 89.1 µM [inhibitor, single point] |
| Cc1ccc2cccc(N)c2n1 | inconclusive: 63.1 µM [inhibitor, single point] |
| COc1ccc([C@]23Cc4ccccc4C(O2)C2=C(CC4(CCCCC4)OC2=O)O3)cc1 | inconclusive: 25.1 µM [inhibitor, single point] |
| CCCCc1nnc(NC(=O)Cc2ccc(S(=O)(=O)N3CCOCC3)s2)s1 | inconclusive: 11.2 µM [inhibitor, single point] |
| Cc1cccc(N(C)c2ncnc3onc(-c4ccc(F)cc4)c23)c1C | inactive |
| Cc1sc2nc(C3CC3)nc(SCC(=O)N3CCc4ccccc4C3)c2c1C | inconclusive: 200 µM [inhibitor, partial curve, poor fit] |
| Cc1cc(Br)ccc1NC(=O)CN(C)C(=O)CSCc1ccccc1 | inconclusive: 100 µM [inhibitor, single point] |
| CCOC(=O)N1CCN(CCC(=O)Nc2cccc(C)c2)CC1 | inconclusive: 100 µM [inhibitor, single point] |
| CC1=Nn2c(nnc2-c2cc(C)[nH]n2)SC1 | inconclusive: 100 µM [inhibitor, single point] |
| COc1ccccc1NC(=O)C1=C(C)NC(SCC(=O)c2ccc(C)cc2)=C(C#N)C1c1ccco1 (configuration not stated) | inconclusive: 70.8 µM [inhibitor, partial curve, poor fit] |
| Cc1nc(SCC(=O)c2ccccc2)c(C#N)c(-c2ccco2)c1C(=O)NCc1ccco1 | inconclusive: 100 µM [inhibitor, single point] |
| C[C@H](CO)N1C[C@H](C)[C@@H](CN(C)C(=O)Nc2ccc(C(F)(F)F)cc2)Oc2c(NC(=O)Nc3ccc(C(F)(F)F)cc3)cccc2C1=O | inactive |
| CCOc1ccc(S(=O)(=O)NCc2ccncc2)cc1 | inconclusive: 22.4 µM [inhibitor, single point] |

Random excerpt: 2 records from the list

| SMILES | Potency |
| --- | --- |
| CCCn1c(SCC(=O)NCC)nc2sc3c(c2c1=O)CCC3 | inactive |
| CN1/C(=C\C(=O)COC(=O)c2ccccc2O)C(C)(C)c2ccccc21 | inconclusive: 50.1 µM [inhibitor, single point] |
